In PubChem BioAssay AID1671190 (National Center for Advancing Translational Sciences (NCATS), 2021):
“And” between values parts separate entries of the source, which are not always exact repeats. Equal entries are not always repeated. Hit rate of the full screen: of about 580,000 compounds, about 6,100 (1.1%) were called active. The inconclusive results got no clear call from the source; some entries with a clear call stand among them for comparison. Calls come from the whole dose curve; as a rule, active = well fitted inhibition curve with a large enough effect; inconclusive = small, poorly fitted or top-dose-only effect, or another doubt; inactive = no such curve, though single readings can be large or run the other way. Potencies beside an inconclusive call are fits to weak or partial responses and may not hold up.
% is set by controls: 0 for no effect and ±100 for the full control effect; potency is the fitted concentration of half-maximal effect.

Chains of the proteins cited; added tags and fusions are not shown. Lines headed by an entry give the natural chain unless they say otherwise; changes in a name come on top.
UniProt P18054: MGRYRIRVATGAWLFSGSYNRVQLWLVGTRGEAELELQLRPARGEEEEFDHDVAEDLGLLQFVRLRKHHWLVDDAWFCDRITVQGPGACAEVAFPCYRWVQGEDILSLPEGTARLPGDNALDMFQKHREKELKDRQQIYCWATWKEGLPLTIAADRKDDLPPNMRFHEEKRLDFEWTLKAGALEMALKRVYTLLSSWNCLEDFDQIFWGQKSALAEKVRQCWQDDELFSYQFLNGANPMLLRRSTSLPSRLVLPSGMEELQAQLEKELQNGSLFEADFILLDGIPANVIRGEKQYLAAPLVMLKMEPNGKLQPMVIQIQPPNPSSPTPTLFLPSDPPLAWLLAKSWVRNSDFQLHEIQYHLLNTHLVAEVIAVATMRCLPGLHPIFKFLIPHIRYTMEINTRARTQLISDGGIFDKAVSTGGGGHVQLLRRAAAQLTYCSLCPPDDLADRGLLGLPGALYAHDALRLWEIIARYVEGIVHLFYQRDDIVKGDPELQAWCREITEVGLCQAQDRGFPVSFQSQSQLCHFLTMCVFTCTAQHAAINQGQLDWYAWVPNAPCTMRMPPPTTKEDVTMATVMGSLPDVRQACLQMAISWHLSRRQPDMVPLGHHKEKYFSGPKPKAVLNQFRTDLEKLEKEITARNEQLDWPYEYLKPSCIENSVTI

Each compound was assayed against Polyunsaturated fatty acid lipoxygenase ALOX12 (Homo sapiens) (UniProt P18054) (assay: Primary qHTS assay for inhibitors of human arachidonate 12S-lipoxygenase (ALOX12): Round 2). Settings: purified 12hLO, xylenol orange hydroperoxide absorbance; activity change, negative = inhibition: at 108 µM (top of the series) unless noted.
Method in brief: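 Purified human 12hLO (150 nM final) in 25 mM Hepes, 0.01% Triton X-100, pH 7.0 was preincubated 15 min at room temperature with compound. Then 40 uM arachidonic acid was added, 30 min. Hydroperoxide was read by Fe-XO absorbance ratio 573/405 nm.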
For Cc1ccc(C(=O)Nc2nc3nc(-c4ccccc4)cc(=O)n3[nH]2)cc1, the Potency was inconclusive: 1.58 µM [inhibitor, partial curve, poor fit] and inconclusive: 11.2 µM [inhibitor, full curve].
With CC1CCN(C(=O)CCC[C@H]2NC[C@@H]3C[C@H]2CN(Cc2ccccc2)C3)CC1 the Potency was active: 10 µM.
In the case of CCCCCSc1ccc(/C=C/C(=O)O)cc1, the Potency is reported as inconclusive: 5.62 µM [inhibitor, full curve].
O=C1Nc2ccccc2CC12CN(CC1CCNC1)C2 (stereo not given) was tested, and the Potency was inconclusive: 35.5 µM [inhibitor, full curve, poor fit].
With Cc1ccc(-c2noc(-c3nc(Cc4ccc(F)cc4)no3)n2)cc1 the Potency was “inactive”.
In the case of CSc1ccc(C(C(=O)O)N2CCN(Cc3csc(C)n3)CC2)cc1 (stereo not given), the Potency is reported as inconclusive: 17.8 µM [inhibitor, full curve, poor fit].
In the case of Nc1[nH]c(C(=O)c2ccc(Cl)cc2)c(-c2ccc(Br)cc2)c1C(=O)NCCc1c[nH]c2ccccc12, the Potency is reported as inconclusive: 44.7 µM [inhibitor, partial curve, poor fit].
In the case of NC(=O)c1ccsc1NC(=O)COC(=O)c1c(F)cccc1F, the Potency is reported as inconclusive: 70.8 µM [inhibitor, single point].
For COCCN1CCCc2nc(-c3ccc(F)cc3)ccc21, the Potency was inconclusive: 7.94 µM [inhibitor, full curve, poor fit].
For Clc1ccc(-c2cc3ccccc3[nH]2)cc1, the Potency was inconclusive: 44.7 µM [inhibitor, partial curve, poor fit].
In the case of COc1cccc(-c2nc(SCC(=O)NCc3ccco3)c3c(=O)n(C)c(=O)n(C)c3n2)c1, the Potency is reported as inconclusive: 15.8 µM [inhibitor, full curve, poor fit].
In the case of O=C(O)COCC(=O)Nc1ccc(-n2nc(C(F)(F)F)cc2-c2cccs2)cc1, the Potency is reported as inconclusive: 112 µM [inhibitor, single point].
With CCOC(=O)C(C)Oc1ccc2c(=O)c(Oc3ccccc3OCC)coc2c1 (stereo not given) the Potency was “inactive”.
Cc1ccc(C)c(/C(O)=C2\C(=O)C(=O)N(CCCn3ccnc3)C2c2cccnc2)c1 (stereo not given) was tested, and the Potency was inconclusive: 2.82 µM [inhibitor, full curve, poor fit].
In the case of O=C(O)CN1C(=O)/C(=C/c2ccc(SCc3ccccc3)o2)SC1=S, the Potency is reported as inconclusive: 35.5 µM [inhibitor, partial curve, poor fit].
For CC1=C[C@@H](CNC2CCN(C)CC2)[C@H](C(C)C)C[C@H]1Cc1nc2ccccc2[nH]1, the Potency was “inactive”.
With CC1(C)C=Cc2cc(-c3coc4cc(O)cc(O)c4c3=O)cc(O)c2O1 the Potency was inconclusive: 100 µM [inhibitor, single point].
For O=c1c2c3c(sc2ncn1/N=C/c1ccc([N+](=O)[O-])o1)CCCC3, the Potency was inconclusive: 44.7 µM [inhibitor, partial curve, poor fit].
With COc1cc(CNC(=O)C23CC4CC(CC(C4)C2)C3)ccc1OC(F)F the Potency was “inactive”.
In the case of CCCCN(C)Cc1cc(=O)oc2ccc3ccccc3c12, the Potency is reported as inconclusive: 79.4 µM [inhibitor, single point].
With Cc1noc(-c2ccccc2)c1NC(=O)Nc1ccc(Cl)cc1 the Potency was inconclusive: 50.1 µM [inhibitor, partial curve, poor fit].
S=c1[nH]nc(-c2ccncc2)n1CC1CCCO1 (stereo not given) was tested, and the Potency was inconclusive: 31.6 µM [inhibitor, full curve, poor fit].
For CCCS(=O)(=O)NC(=O)C1(C)CCN(C(=O)c2nc(C)oc2C)C1 (stereo not given), the Potency was inconclusive: 31.6 µM [inhibitor, full curve, poor fit].
In the case of CC(C)=C[C@H]1C[C@H](C)[C@H]2CC[C@H](C)c3c(O[C@@H]4O[C@@H](C)[C@@H](O)[C@@H](O)[C@@H]4O)c(O)c(C)c1c32, the Potency is reported as inconclusive: 56.2 µM [inhibitor, partial curve, poor fit].
With Nc1ccccc1OCC1CCCO1 (stereo not given) the Potency was “inactive”.
Cc1ccc(NS(=O)(=O)c2ccc(C(=O)N3CC(C)CC(C)C3)cc2)cc1 (stereo not given) was tested, and the Potency was “inactive”.
COc1ccc(S(=O)(=O)N2CCN(C3CCCCCCC3)CC2)cc1 was tested, and the Potency was inconclusive: 0.631 µM [inhibitor, full curve, poor fit].
In the case of CCN(CC)S(=O)(=O)c1ccc2c(c1)c(=O)c(C(=O)NCc1ccccc1Cl)cn2C, the Potency is reported as inconclusive: 126 µM [inhibitor, single point].
For CN1CCN(S(=O)(=O)c2cccc(C#N)c2)C(c2ccccc2)C1 (stereo not given), the Potency was inconclusive: 35.5 µM [inhibitor, partial curve].
With O=C(NCCc1ccccc1)C1=CCN(S(=O)(=O)c2ccccc2)CC1 the Potency was inconclusive: 1.58 µM [inhibitor, full curve, poor fit].
For CCCCc1c/c(=N\O)oc2cc3occ(C)c3cc12, the Potency was active: 17.8 µM.
For Cc1cccc(NC(=O)C(C)Sc2nnc(-c3cccnc3)o2)c1 (stereo not given), the Potency was inconclusive: 28.2 µM [inhibitor, single point].
For Cc1ccc2c(c1C)NC(=O)CC2c1cc2c(cc1Br)OCO2 (stereo not given), the Potency was inconclusive: 56.2 µM [inhibitor, partial curve, poor fit].
With COc1ccc(S[C@]2(c3nc(C)no3)CC(=O)N[C@@H]2c2ccc(OC)cc2)cc1 the Potency was inconclusive: 39.8 µM [inhibitor, partial curve, poor fit].
For O=C(N/N=C/c1ccccc1)c1cc[n+]([O-])cc1, the Potency was “inactive”.
O=C(CSc1c2c(nc3cc(Cl)ccc13)CCCC2)N1CCN(c2ccccc2)CC1 was tested, and the Potency was “inactive”.
With CS(=O)(=O)N(CC(=O)NCc1ccncc1)c1cc(Cl)ccc1Cl the Potency was inconclusive: 8.91 µM [inhibitor, partial curve].
O=C1O[C@@H](c2ccccc2)C[C@@H](O)[C@H](O)CCCc2ccccc21 was tested, and the Potency was inconclusive: 14.1 µM [inhibitor, partial curve, poor fit].
COc1ccc(-c2nc3ccc(Br)cn3c2Cc2ccccc2C(F)(F)F)cc1OC was tested, and the Potency was inconclusive: 44.7 µM [inhibitor, partial curve, poor fit].
In the case of COc1ccc(/C=C(\C#N)c2nc3ccccc3[nH]2)cc1I, the Potency is reported as active: 6.31 µM.
Cc1c(NC(=O)c2cccc(-c3cc4ccccc4oc3=O)c2)cccc1-c1nc2ncccc2o1 was tested, and the Potency was “inactive”.
Cc1ccc(-c2cc(C(=O)OCC(=O)N3CCOCC3)c3ccccc3n2)cc1 was tested, and the Potency was inconclusive: 31.6 µM [inhibitor, partial curve, poor fit].
For CNc1nc(-c2ccc(N(C)C)cc2)nc2ccccc12, the Potency was inconclusive: 22.4 µM [inhibitor, partial curve, poor fit].
For CN1CC(=O)N(C2CCC2)Cc2c(NCc3ccc(F)cc3)ncnc21, the activity change, negative = inhibition was inactive: -2.78% [at 6.33 µM].
With N#C/C(=C\c1cc2c(cc1Br)OCO2)C(=O)NCC1CCCO1 (stereo not given) the Potency was inconclusive: 44.7 µM [inhibitor, partial curve, poor fit].
With CCN(CC)CCCNC(=O)c1cn(CC(C)C)c(=O)c2c1c1ccccc1n2C the Potency was inconclusive: 79.4 µM [inhibitor, partial curve, poor fit].
For CN(C)c1ccc(CN2CCCC3(C2)C(=NC2CCCC2)NC(=O)N3c2cc(F)cc(F)c2)cc1 (stereo not given), the Potency was inconclusive: 112 µM [inhibitor, partial curve, poor fit].
C/C(=N\NC(=S)NCc1ccccc1)c1ccc2c(c1)OCCO2 was tested, and the Potency was active: 35.5 µM.
O=C(CN1CCCCC1)Nc1cc(Cl)ccc1Oc1ccccc1 was tested, and the Potency was “inactive”.
For O=C(O)c1ccc(F)c(S(=O)(=O)N2CCCC2)c1, the Potency was “inactive”.
For COc1ccc([C@H]2CC(=O)C=C(c3ccc(Cl)c(C(F)(F)F)c3)C2)cc1, the Potency was inconclusive: 3.98 µM [inhibitor, full curve, poor fit].
In the case of O=S(=O)(c1ccccc1)c1nc(-c2ccccc2)oc1N1CCCCC1, the Potency is reported as inconclusive: 39.8 µM [inhibitor, full curve, poor fit].
In the case of CCOc1ccc(C(=O)Nc2ccc3c(c2)OCCO3)cc1, the Potency is reported as inconclusive: 141 µM [inhibitor, partial curve, poor fit].
For O=C(NC1CCN(Cc2ccccc2)CC1)c1ccccc1NS(=O)(=O)c1ccc(F)cc1, the Potency was inconclusive: 100 µM [inhibitor, single point].
COc1ccc(C(=O)N2CCC3(CC2)CC(O)CCO3)c(C)c1 (stereo not given) was tested, and the Potency was “inactive”.
With C=CCn1c(SCCCC)nc(O)cc1=O the Potency was inconclusive: 112 µM [inhibitor, single point].
CCCc1cc(=O)[nH]c(-n2nc(C)cc2NC(=O)Cc2ccccc2)n1 was tested, and the Potency was inconclusive: 63.1 µM [inhibitor, partial curve, poor fit].
CCOC(=O)c1cc(NC(=O)C(C)CC)cc(C(=O)OCC)c1 (stereo not given) was tested, and the Potency was “inactive”.
In the case of Cc1ccc(S(=O)(=O)NNC(=O)c2ccccc2-n2cccc2)cc1, the Potency is reported as inconclusive: 10 µM [inhibitor, full curve, poor fit].
For O=C(Cc1cccc(F)c1)NCC1CCN(Cc2cccs2)CC1, the Potency was “inactive”.
Cc1ccc(N/N=C/c2ccc(Cl)c(Cl)c2)cc1 was tested, and the Potency was active: 15.8 µM.
With CSc1ccc(-c2nc3ncccn3c2Nc2ccccc2)cc1 the Potency was inconclusive: 4.47 µM [inhibitor, single point].
C=CCn1c(CCSCc2ccccc2)n[nH]c1=S was tested, and the Potency was inconclusive: 126 µM [inhibitor, single point].
In the case of O=C(NCCc1ccccc1)C(Cc1ccccc1)NS(=O)(=O)c1ccc(Br)s1 (stereo not given), the Potency is reported as inconclusive: 3.55 µM [inhibitor, single point].
For COc1cccc(C(=O)N2[C@H](COCc3ccccc3)C=CS2(=O)=O)c1, the Potency was inconclusive: 100 µM [inhibitor, single point].
